Laboratory results reported in patent US20150052630A1, “Methods and Compositions for Obtaining Useful Plant Traits” (Board of Regents of the University of Nebraska, priority 2013, published 2015).
These are yes or no findings as the source states them, for the method shown. Binding calls can cover weak binding; strength is not graded here.

Molecular target: RNA binding protein; mRNA processing, RNA processing (AT3G11964) (Arabidopsis)
Experiment: yeast 2-hybrid

B1: Arabidopsis MSH1 (MUTS HOMOLOG 1), full-length (protein)
chain: MHWIATRNAVVSFPKWRFFFRSSYRTYSSLKPSSPILLNRRYSEGISCLRDGKSLKRITTASKKVKTSSDVLTDKDLSHLVWWKERLQTCKKPSTLQLIERLMYTNLLGLDPSLRNGSLKDGNLNWEMLQFKSRFPREVLLCRVGEFYEAIGIDACILVEYAGLNPFGGLRSDSIPKAGCPIMNLRQTLDDLTRNGYSVCIVEEVQGPTPARSRKGRFISGHAHPGSPYVYGLVGVDHDLDFPDPMPVVGISRSARGYCMISIFETMKAYSLDDGLTEEALVTKLRTRRCHHLFLHASLRHNASGTCRWGEFGEGGLLWGECSSRNFEWFEGDTLSELLSRVKDVYGLDDEVSFRNVNVPSKNRPRPLHLGTATQIGALPTEGIPCLLKVLLPSTCSGLPSLYVRDLLLNPPAYDIALKIQETCKLMSTVTCSIPEFTCVSSAKLVKLLEQREANYIEFCRIKNVLDDVLHMHRHAELVEILKLLMDPTWVATGLKIDFDTFVNECHWASDTIGEMISLDENESHQNVSKCDNVPNEFFYDMESSWRGRVKGIHIEEEITQVEKSAEALSLAVAEDFHPIISRIKATTASLGGPKGEIAYAREHESVWFKGKRFTPSIWAGTAGEDQIKQLKPALDSKGKKVGEEWFTTPKVEIALVRYHEASENAKARVLELLRELSVKLQTKINVLVFASMLLVISKALFSHACEGRRRKWVFPTLVGFSLDEGAKPLDGASRMKLTGLSPYWFDVSSGTAVHNTVDMQSLFLLTGPNGGGKSSLLRSICAAALLGISGLMVPAESACIPHFDSIMLHMKSYDSPVDGKSSFQVEMSEIRSIVSQATSRSLVLIDEICRGTETAKGTCIAGSVVESLDTSGCLGIVSTHLHGIFSLPLTAKNITYKAMGAENVEGQTKPTWKLTDGVCRESLAFETAKREGVPESVIQRAEALYLSVYAKDASAEVVKPDQIITSSNNDQQIQKPVSSERSLEKDLAKAIVKICGKKMIEPEAIECLSIGARELPPPSTVGSSCVYVMRRPDKRLYIGQTDDLEGRIRAHRAKEGLQGSSFLYLMVQGKSMACQLETLLINQLHEQGYSLANLADGKHRNFGTSSSLSTSDVVSIL
binding: binds
